Measurements reported in PubChem BioAssay AID504784 (Drosophila RNAi Screening Center, 2011)
In all, the deposit lists about 17,000 reagents; shown is an unselected part of those that have a named target and a result. 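Each column is one replicate's B-score; the combined score over replicates was not deposited, so single values may mislead.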 Reagents against one gene are numbered here. Names joined by + are all predicted targets of the reagent.

Aim: 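Genome-wide knock-down for genes giving too much or too little stored lipid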 (primary screen)
Cell system: Drosophila Kc167 embryonic cells
Reagents: long dsRNA against Drosophila genes, about 250 ng dsRNA per well
Duration: 4 days
Treatment: cells fed 400 µM oleic acid bound to BSA
Detection: 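Cells imaged and segmented; ratio of lipid droplet area to nuclear area, log-transformed, then normalised as a B-score over the screen; higher means more stored lipid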
Reading the numbers: droplet/nuclear area B-score: higher = more stored lipid (overstorage)

| Gene | reagent no. | droplet/nuclear area B-score, replicate 1 | droplet/nuclear area B-score, replicate 2 | droplet/nuclear area B-score, replicate 3 |
| --- | --- | --- | --- | --- |
| Sfmbt | 1 | 1.17 | -0.16 | – |
| Cpr78Ca | 1 | 1.93 | 0.852 | – |
| chas | 1 | -0.313 | -1.43 | – |
| chas | 2 | -1.05 | -1.41 | – |
| c12.1 | 1 | -1.45 | -0.123 | -1.85 |
| Nnk | 1 | -1.2 | 0.923 | – |
| l(3)73Ah | 1 | 0.892 | -0.383 | – |
| atk | 1 | -0.818 | 1.68 | -0.00719 |
| atk | 2 | -0.0282 | 0.204 | – |
| Mbs | 1 | -1.27 | 0.0103 | – |
| Mbs | 2 | 1.92 | 1.26 | -0.683 |
| Mbs | 3 | -0.43 | -0.855 | 0.00377 |
| Pif1A + Pif1B | 1 | -1.39 | 0.411 | – |
| Pif1A + Pif1B | 2 | – | -0.407 | – |
| Pif1A + Pif1B | 3 | 0.629 | -0.284 | – |
| CG14441 | 1 | 0.705 | 3.61 | – |
| psidin | 1 | 1.59 | 0.0491 | – |
| Smurf | 1 | -0.983 | 0.34 | – |

Just “droplet/nuclear area B-score, replicate 1” (4 entries from above):
Sfmbt: 1.17
Cpr78Ca: 1.93
chas #1: -0.313
chas #2: -1.05

The results go on.
| Gene | reagent no. | droplet/nuclear area B-score, replicate 1 | droplet/nuclear area B-score, replicate 2 | droplet/nuclear area B-score, replicate 3 |
| --- | --- | --- | --- | --- |
| CG43902 | 1 | 2.59 | 1.23 | 1.52 |
| CG33268 | 1 | -0.972 | -0.636 | – |
| Plzf | 1 | 0.767 | -0.834 | – |
| MICU3 | 1 | -0.362 | 0.0604 | – |
| MICU3 | 2 | 0.383 | 1.26 | – |
| CG3626 | 1 | 1.31 | 0.798 | – |
| Obp99a | 1 | 2.44 | 0.353 | – |
| CG14102 | 1 | 0.128 | – | – |
| CG34124 | 1 | 0.276 | 0.751 | – |
| CG34235 + CG30058 + CG34312 | 1 | 0.0184 | -0.00605 | – |
| Ugt303A1 | 1 | 0.0332 | 0.154 | – |
| Myo61F | 1 | -0.756 | -0.0994 | – |
| fzy | 1 | 2.08 | 1.26 | – |
| CG11370 | 1 | -0.102 | 1.36 | – |
| CG10710 | 1 | -0.129 | 0.851 | – |
| beat-Va | 1 | -0.571 | -0.661 | – |
